In paper PMC9700324, “Selection-free endogenous tagging of cell lines by bicistronic co-expression of the surface antigen NGFR” (MethodsX, 2022):
Results are given in words; binding and its absence hold for the method and conditions named. In cells and extracts the contact can be indirect. Some entries that bind do so weakly or less than the wild type. Where a sequence is shown, tags or fusion partners need not be part of it.

Legend:
[1] = molecular target: T1, nLAP-tagged WDR59 (WD Repeat Domain 59), endogenously tagged (human (endogenous in HEK293T)) (UniProt Q6PJI9); assay: co-IP; nLAP-tagged WDR59 precipitated from 1,000-3,000 µg lysate protein with GFP-Trap magnetic agarose beads (GFP-specific nanobodies) overnight at 4°C; CoIP buffer (10 mM Tris-HCl pH 8, 150 mM NaCl, 5 mM EDTA, 0.5% Triton X-100, 60 mM octyl-β-D-glucopyranoside); 5 washes; partners detected by Western blot; cells untreated, amino acid-starved 16 h with or without 60 min stimulation with all amino acids or leucine, or leucine-starved with or without 60 min leucine
T1 sequence: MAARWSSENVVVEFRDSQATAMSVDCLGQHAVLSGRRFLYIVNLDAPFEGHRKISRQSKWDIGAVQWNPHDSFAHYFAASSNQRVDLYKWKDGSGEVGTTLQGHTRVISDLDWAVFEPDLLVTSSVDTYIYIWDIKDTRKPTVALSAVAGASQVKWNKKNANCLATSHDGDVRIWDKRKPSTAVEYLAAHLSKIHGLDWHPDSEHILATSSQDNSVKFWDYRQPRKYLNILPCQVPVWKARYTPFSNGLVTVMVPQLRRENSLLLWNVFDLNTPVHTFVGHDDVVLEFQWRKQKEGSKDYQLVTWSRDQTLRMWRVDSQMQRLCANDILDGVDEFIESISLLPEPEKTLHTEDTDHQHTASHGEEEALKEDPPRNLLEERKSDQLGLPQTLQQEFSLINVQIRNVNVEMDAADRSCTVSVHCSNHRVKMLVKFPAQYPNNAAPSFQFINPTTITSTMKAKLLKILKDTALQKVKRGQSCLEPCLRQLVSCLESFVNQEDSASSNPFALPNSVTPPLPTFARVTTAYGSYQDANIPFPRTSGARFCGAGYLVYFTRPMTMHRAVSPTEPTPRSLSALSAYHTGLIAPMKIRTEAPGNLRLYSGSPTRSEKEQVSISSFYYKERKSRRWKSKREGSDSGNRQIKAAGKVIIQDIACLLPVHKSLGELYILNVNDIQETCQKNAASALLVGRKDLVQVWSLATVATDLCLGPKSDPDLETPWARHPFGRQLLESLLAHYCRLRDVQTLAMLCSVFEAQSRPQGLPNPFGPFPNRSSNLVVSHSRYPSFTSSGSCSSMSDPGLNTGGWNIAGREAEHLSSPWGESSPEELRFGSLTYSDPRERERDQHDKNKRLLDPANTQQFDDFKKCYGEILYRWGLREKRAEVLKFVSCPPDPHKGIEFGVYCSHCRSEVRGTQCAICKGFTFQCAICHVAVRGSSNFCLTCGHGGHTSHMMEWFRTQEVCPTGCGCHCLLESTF

[2] = molecular target: T2, nLAP-tagged WDR59 (WD Repeat Domain 59), endogenously tagged (human (endogenous in HEK293T)), Q6PJI9; assay: co-IP; nLAP-tagged WDR59 precipitated from 1,000-3,000 µg lysate protein with GFP-Trap magnetic agarose beads (GFP-specific nanobodies) overnight at 4°C; CoIP buffer (10 mM Tris-HCl pH 8, 150 mM NaCl, 5 mM EDTA, 0.5% Triton X-100, 60 mM octyl-β-D-glucopyranoside); 5 washes; partners detected by Western blot; cells untreated, amino acid-starved 16 h with or without 60 min stimulation with all amino acids or leucine, …; conditions: remark: other sources report otherwise
T2 chain: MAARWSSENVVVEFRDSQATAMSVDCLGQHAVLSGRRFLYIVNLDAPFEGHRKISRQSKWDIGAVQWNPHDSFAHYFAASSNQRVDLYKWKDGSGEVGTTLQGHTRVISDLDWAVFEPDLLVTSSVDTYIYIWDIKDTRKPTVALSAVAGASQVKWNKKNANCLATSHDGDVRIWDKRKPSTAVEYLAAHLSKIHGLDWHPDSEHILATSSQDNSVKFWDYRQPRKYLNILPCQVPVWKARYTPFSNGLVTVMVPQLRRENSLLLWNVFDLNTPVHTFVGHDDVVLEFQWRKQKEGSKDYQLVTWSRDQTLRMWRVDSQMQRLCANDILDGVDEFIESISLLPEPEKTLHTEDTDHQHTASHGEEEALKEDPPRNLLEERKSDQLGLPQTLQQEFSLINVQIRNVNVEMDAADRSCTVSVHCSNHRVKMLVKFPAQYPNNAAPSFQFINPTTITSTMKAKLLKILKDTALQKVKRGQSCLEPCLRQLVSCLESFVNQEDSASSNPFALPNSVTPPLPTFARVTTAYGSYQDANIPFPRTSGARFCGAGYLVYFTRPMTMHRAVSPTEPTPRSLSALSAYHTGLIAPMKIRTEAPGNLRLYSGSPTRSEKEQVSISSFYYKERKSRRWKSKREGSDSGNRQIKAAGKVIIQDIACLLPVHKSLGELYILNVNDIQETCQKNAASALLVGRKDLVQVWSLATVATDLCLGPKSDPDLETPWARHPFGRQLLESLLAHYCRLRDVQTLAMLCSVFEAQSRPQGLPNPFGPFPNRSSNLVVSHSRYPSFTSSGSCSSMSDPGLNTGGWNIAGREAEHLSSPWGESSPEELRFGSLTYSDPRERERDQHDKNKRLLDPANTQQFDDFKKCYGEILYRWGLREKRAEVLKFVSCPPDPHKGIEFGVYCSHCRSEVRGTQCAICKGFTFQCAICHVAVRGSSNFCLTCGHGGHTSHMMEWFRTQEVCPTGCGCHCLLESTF

B1: Sestrin-2 (SESN2) (natural protein, human (endogenous in HEK293T), UniProt P58004 1-480, looked up)
chain: MIVADSECRAELKDYLRFAPGGVGDSGPGEEQRESRARRGPRGPSAFIPVEEVLREGAESLEQHLGLEALMSSGRVDNLAVVMGLHPDYFTSFWRLHYLLLHTDGPLASSWRHYIAIMAAARHQCSYLVGSHMAEFLQTGGDPEWLLGLHRAPEKLRKLSEINKLLAHRPWLITKEHIQALLKTGEHTWSLAELIQALVLLTHCHSLSSFVFGCGILPEGDADGSPAPQAPTPPSEQSSPPSRDPLNNSGGFESARDVEALMERMQQLQESLLRDEGTSQEEMESRFELEKSESLLVTPSADILEPSPHPDMLCFVEDPTFGYEDFTRRGAQAPPTFRAQDYTWEDHGYSLIQRLYPEGGQLLDEKFQAAYSLTYNTIAMHSGVDTSVLRRAIWNYIHCVFGIRYDDYDYGEVNQLLERNLKVYIKTVACYPEKTTRRMYNLFWRHFRHSEKVHVNLLLLEARMQAALLYALRAITRYMT
notes: Sestrin-2 (SESN2), leucine-sensing protein, human, endogenous; source: endogenous, HEK (Lenti-X 293T) spCas9+ WDR59-NGFRETD-nLAP clone D5 lysate
binding [1]: binds

B2: NPRL3 (Nitrogen Permease Regulator 3-Like Protein), Q12980 1-569 (natural protein)
chain: MRDNTSPISVILVSSGSRGNKLLFRYPFQRSQEHPASQTSKPRSRYAASNTGDHADEQDGDSRFSDVILATILATKSEMCGQKFELKIDNVRFVGHPTLLQHALGQISKTDPSPKREAPTMILFNVVFALRANADPSVINCLHNLSRRIATVLQHEERRCQYLTREAKLILALQDEVSAMADGNEGPQSPFHHILPKCKLARDLKEAYDSLCTSGVVRLHINSWLEVSFCLPHKIHYAASSLIPPEAIERSLKAIRPYHALLLLSDEKSLLGELPIDCSPALVRVIKTTSAVKNLQQLAQDADLALLQVFQLAAHLVYWGKAIIIYPLCENNVYMLSPNASVCLYSPLAEQFSHQFPSHDLPSVLAKFSLPVSLSEFRNPLAPAVQETQLIQMVVWMLQRRLLIQLHTYVCLMASPSEEEPRPREDDVPFTARVGGRSLSTPNALSFGSPTSSDDMTLTSPSMDNSSAELLPSGDSPLNQRMTENLLASLSEHERAAILSVPAAQNPEDLRMFARLLHYFRGRHHLEEIMYNENTRRSQLLMLFDKFRSVLVVTTHEDPVIAVFQALLP
binding [2]: binds

B3: MIOS (Meiosis Regulator For Oocyte Development) (natural protein, human (endogenous in HEK293T), UniProt Q9NXC5 1-875, looked up)
chain: MSGTKPDILWAPHHVDRFVVCDSELSLYHVESTVNSELKAGSLRLSEDSAATLLSINSDTPYMKCVAWYLNYDPECLLAVGQANGRVVLTSLGQDHNSKFKDLIGKEFVPKHARQCNTLAWNPLDSNWLAAGLDKHRADFSVLIWDICSKYTPDIVPMEKVKLSAGETETTLLVTKPLYELGQNDACLSLCWLPRDQKLLLAGMHRNLAIFDLRNTSQKMFVNTKAVQGVTVDPYFHDRVASFYEGQVAIWDLRKFEKPVLTLTEQPKPLTKVAWCPTRTGLLATLTRDSNIIRLYDMQHTPTPIGDETEPTIIERSVQPCDNYIASFAWHPTSQNRMIVVTPNRTMSDFTVFERISLAWSPITSLMWACGRHLYECTEEENDNSLEKDIATKMRLRALSRYGLDTEQVWRNHILAGNEDPQLKSLWYTLHFMKQYTEDMDQKSPGNKGSLVYAGIKSIVKSSLGMVESSRHNWSGLDKQSDIQNLNEERILALQLCGWIKKGTDVDVGPFLNSLVQEGEWERAAAVALFNLDIRRAIQILNEGASSEKGDLNLNVVAMALSGYTDEKNSLWREMCSTLRLQLNNPYLCVMFAFLTSETGSYDGVLYENKVAVRDRVAFACKFLSDTQLNRYIEKLTNEMKEAGNLEGILLTGLTKDGVDLMESYVDRTGDVQTASYCMLQGSPLDVLKDERVQYWIENYRNLLDAWRFWHKRAEFDIHRSKLDPSSKPLAQVFVSCNFCGKSISYSCSAVPHQGRGFSQYGVSGSPTKSKVTSCPGCRKPLPRCALCLINMGTPVSSCPGGTKSDEKVDLSKDKKLAQFNNWFTWCHNCRHGGHAGHMLSWFRDHAECPVSACTCKCMQLDTTGNLVPAETVQP
notes: MIOS (Meiosis Regulator For Oocyte Development), subunit of GATOR2, human, endogenous; also called GATOR2 subunit MIOS; source: endogenous, HEK (Lenti-X 293T) spCas9+ WDR59-NGFRETD-nLAP clone D5 lysate
binding [1]: binds
